Results from JP2018108089A.
These are yes or no findings as the source states them, for the method shown. Some results given as binding are weak or reduced against the parent protein; the word gives no strength.

Sequences of proteins named here, by UniProt entry; tags and fusion partners are left off. Residues count along the entry.
UniProt P10646, residues 29-304: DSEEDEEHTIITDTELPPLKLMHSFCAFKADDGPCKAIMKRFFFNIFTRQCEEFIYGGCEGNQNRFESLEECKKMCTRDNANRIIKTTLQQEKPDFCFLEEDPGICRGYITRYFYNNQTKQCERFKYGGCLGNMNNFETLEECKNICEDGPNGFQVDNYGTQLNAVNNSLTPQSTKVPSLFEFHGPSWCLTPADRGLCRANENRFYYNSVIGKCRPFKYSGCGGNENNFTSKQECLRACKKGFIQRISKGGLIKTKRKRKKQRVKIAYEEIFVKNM

Molecular target: human tissue factor pathway inhibitor (TFPI) (human) (UniProt P10646)
Test: ELISA, Fab from bacterial lysate on coated human TFPI

| Binder | binding |
| --- | --- |
| TP-2B1 (Fab, V domains shown) VH: QVQLVESGGGLVQPGGSLRLSCAASGFTFSSYSMSWVRQASGKGLEWVSSIKGSGSNTYYADSVKGRFTISRDNSKNTLYLQMNSLRAEDTAVYYCARNGGLIDVWGQGTLVTVSS VL: DIELTQPPSVSVAPGQTARISCSGDNLGNKYAHWYQQKPGQAPVLVIYYDNKRPSGIPERFSGSNSGNTATLTISGTQAEDEADYYCQSWTPGSNTMVFGGGTRLTVLG | binds |
| TP-4G8 (Fab, V domains shown) VH: QVQLVESGGGLVQPGGSLRLSCAASGFTFSTYAMHWVRQAPGKGLEWVSTISGYGSFTYYADSVKGRFTISRDNSKNTLYLQMNSLRAEDTAVYYCARNGRKYGQMDNWGQGTLVTVSS VL: DIELTQPPSVSVAPGQTARISCSGDKLGSKSVHWYQQKPGQAPVLVIYRDTDRPSGIPERFSGSNSGNTATLTISGTQAEDEADYYCQTYDYILNVFGGGTKLTVLG | binds |
| TP-2A10 (Fab, V domains shown) VH: QVQLVESGGGLVQPGGSLRLSCAASGFTFTSYSMNWVRQAPGKGLEWVSAISYTGSNTHYADSVKGRFTISRDNSKNTLYLQMNSLRAEDTAVYYCARAFLGYKESYFDIWGQGTLVTVSS VL: DIELTQPPSVSVAPGQTARISCSGDKLGKKYVHWYQQKPGQAPVLVIYGDDKRPSGIPERFSGSNSGNTATLTISGTQAEDEADYYCQAWGSISRFVFGGGTKLTVLG | binds |
| TP-3H2 (Fab, V domains shown) VH: QVQLVESGGGLVQPGGSLRLSCAASGFTFNSYYMSWVRQAPGKGLEWVSNISSSGSNTNYADSVKGRFTISRDNSKNTLYLQMNSLRAEDTAVYYCARVHYGFDFWGQGTLVTVSS VL: DIELTQPPSVSVAPGQTARISCSGDKLGKYYAYWYQQKPGQAPVLVIYGDSKRPSGIPERFSGSNSGNTATLTISGTQAEDEADYYCSSAAFGSTVFGGGTKLTVLG | binds |
| TP-4A9 (Fab, V domains shown) VH: QVQLVESGGGLVQPGGSLRLSCAASGFTFSSYGMSWVRQAPGKGLEWVSLISGVSSSTYYADSVKGRFTISRDNSKNTLYLQMNSLRAEDTAVYYCARSYLGYFDVWGQGTLVTVSS VL: DIELTQPPSVSVAPGQTARISCSGDALGKYYASWYQQKPGQAPVLVIYGDNKRPSGIPERFSGSNSGNTATLTISGTQAEDEADYYCQSYTTRSLVFGGGTKLTVLG | binds |
| TP-2B8 (Fab, V domains shown) VH: QVQLVQSGAEVKKPGASVKVSCKASGYTFTGNSMHWVRQAPGQGLEWMGTIFPYDGTTKYAQKFQGRVTMTRDTSISTAYMELSSLRSEDTAVYYCARGVHSYFDYWGQGTLVTVSS VL: DIELTQPPSVSVAPGQTARISCSGDNLRGYYASWYQQKPGQAPVLVIYEDNNRPSGIPERFSGSNSGNTATLTISGTQAEDEADYYCQSWDSPYVHVFGGGTKLTVLG | binds |
| TP-4H8 (Fab, V domains shown) VH: QVQLVESGGGLVQPGGSLRLSCAASGFTFSDHAMHWVRQAPGKGLEWVSVIEYSGSKTNYADSVKGRFTISRDNSKNTLYLQMNSLRAEDTAVYYCARGDYYPYLVFAIWGQGTLVTVSS VL: DIELTQPPSVSVAPGQTARISCSGDSIGKKYVHWYQQKPGQAPVLVIYGDNNRPSGIPERFSGSNSGNTATLTISGTQAEDEADYYCSTADSVITYKNVFGGGTKLTVLG | binds |
| TP-3G3 (Fab, V domains shown) VH: QVQLVESGGGLVQPGGSLRLSCAASGFTFSSYSMSWVRQAPGKGLEWVSSISSSSSNTYYGDSVKGRFTISRDNSKNTLYLQMNSLRAEDTAVYYCARMHYKGMDIWGQGTLVTVSS VL: DIQMTQSPSSLSASVGDRVTITCRASQNIHSHLNWYQQKPGKAPKLLIYDASSLQSGVPSRFSGSGSGTDFTLTISSLQPEDFAVYYCQQYYDYPLTFGQGTKVEIKR | binds |
| TP-4A7 (Fab, V domains shown) VH: QVQLVESGGGLVQPGGSLRLSCAASGFTFRNYAMNWVRQAPGKGLEWVSVISGSSSYTYYADSVKGRFTISRDNSKNTLYLQMNSLRAEDTAVYYCARADLPYMVFDYWGQGTLVTVSS VL: DIELTQPPSVSVAPGQTARISCSGDALGSKFAHWYQQKPGQAPVLVIYDDSERPSGIPERFSGSNSGNTATLTISGTQAEDEADYYCQAYDSGLLYVFGGGTKLTVLG | binds |

Continued, values first:

| binding | Binder |
| --- | --- |
| binds | TP-4E8 (Fab, V domains shown) VH: QVQLVESGGGLVQPGGSLRLSCAASGFTFNDYAMSWVRQAPGKGLEWVSLIESVSSSTYYADSVKGRFTISRDNSKNTLYLQMNSLRAEDTAVYYCARTIGVLWDDVWGQGTLVTVSS VL: DIELTQPPSVSVAPGQTARISCSGDALGSKYVSWYQQKPGQAPVLVIYGDNKRPSGIPERFSGSNSGNTATLTISGTQAEDEADYYCQSYTYSLNQVFGGGTKLTVLG |
| binds | TP-3G1 (Fab, V domains shown) VH: QVQLQQSGPGLVKPSQTLSLTCAISGDSVSSNSGGWGWIRQSPGRGLEWLGLIYYRSKWYNAYAVSVKSRITINPDTSKNQFSLQLNSVTPEDTAVYYCARYLGSNFYVYSDVWGQGTLVTVSS VL: DIQMTQSPSSLSASVGDRVTITCRASQGISSYLHWYQQKPGKAPKLLIYGASTLQSGVPSRFSGSGSGTDFTLTISSLQPEDFATYYCQQQNGYPFTFGQGTKVEIKR |
| binds | TP-3F2 (Fab, V domains shown) VH: QVQLVESGGGLVQPGGSLRLSCAASGFTFSSYSMHWVRQAPGKGLEWVSGISYSSSFTYYADSVKGRFTISRDNSKNTLYLQMNSLRAEDTAVYYCARALGGGVDYWGQGTLVTVSS VL: DIELTQPPSVSVAPGQTARISCSGDNLPSKSVYWYQQKPGQAPVLVIYGDNNRPSGIPERFSGSNSGNTATLTISGTQAEDEADYYCQSWTSRPMVVFGGGTKLTVLG |
| binds | TP-2B4 (Fab, V domains shown) VH: QVQLVESGGGLVQPGGSLRLSCAASGFTFSNYSMTWVRQAPGKGLEWVSGISYNGSNTYYADSVKGRFTISRDNSKNTLYLQMNSLRAEDTAVYYCARIYYMNLLAGWGQGTLVTVSS VL: DIELTQPPSVSVAPGQTARISCSGDALGTYYAYWYQQKPGQAPVLVIYGDMNRPSGIPERFSGSNSGNTATLTISGTQAEDEADYYCQSYDAGVKPAVFGGGTKLTVLG |
| binds | TP-3E1 (Fab, V domains shown) VH: QVQLVESGGGLVQPGGSLRLSCAASGFTFSNYAMTWVRQAPGKGLEWVSVISSVGSNTYYADSVKGRFTISRDNSKNTLYLQMNSLRAEDTAVYYCARPTKAGRTWWWGPYMDVWGQGTLVTVSS VL: DIELTQPPSVSVAPGQTARISCSGDNIGSYYAYWYQQKPGQAPVLVIYDDSNRPSGIPERFSGSNSGNTATLTISGTQAEDEADYYCQSYDSTGLLVFGGGTKLTVLG |
| binds | TP-3F1 (Fab, V domains shown) VH: QVQLVQSGAEVKKPGESLKISCKGSGYSFTDYWIGWVRQMPGKGLEWMGIIQPSDSDTNYSPSFQGQVTISADKSISTAYLQWSSLKASDTAMYYCARFMWWGKYDSGFDVWGQGTLVTVSS VL: DIELTQPPSVSVAPGQTARISCSGDNIGSYFASWYQQKPGQAPVLVIYDDSNRPSGIPERFSGSNSGNTATLTISGTQAEDEADYYCEGSNVFGGGTKLTVLG |
| binds | TP-2B3 (Fab, V domains shown) VH: QVQLQQSGPGLVKPSQTLSLTCAISGDSVSSNSAAWGWIRQSPGRGLEWLGMIYYRSKWYNSYAVSVKSRITINPDTSKNQFSLQLNSVTPEDTAVYYCARTMSKYGGPGMDVWGQGTLVTVSS VL: DIVLTQSPATLSLSPGERATLSCRASQNIGSNYLAWYQQKPGQAPRLLIYGASTRATGVPARFNGSGSGTDFTLTISSLEPEDFAVYYCQQLNSIPVTFGQGTKVEIKR |
